The assay has as its target T1, ^GSTDpb11 (construct of Fig. S1A, not told) (S. cerevisiae) (UniProt P47027).
T1 sequence: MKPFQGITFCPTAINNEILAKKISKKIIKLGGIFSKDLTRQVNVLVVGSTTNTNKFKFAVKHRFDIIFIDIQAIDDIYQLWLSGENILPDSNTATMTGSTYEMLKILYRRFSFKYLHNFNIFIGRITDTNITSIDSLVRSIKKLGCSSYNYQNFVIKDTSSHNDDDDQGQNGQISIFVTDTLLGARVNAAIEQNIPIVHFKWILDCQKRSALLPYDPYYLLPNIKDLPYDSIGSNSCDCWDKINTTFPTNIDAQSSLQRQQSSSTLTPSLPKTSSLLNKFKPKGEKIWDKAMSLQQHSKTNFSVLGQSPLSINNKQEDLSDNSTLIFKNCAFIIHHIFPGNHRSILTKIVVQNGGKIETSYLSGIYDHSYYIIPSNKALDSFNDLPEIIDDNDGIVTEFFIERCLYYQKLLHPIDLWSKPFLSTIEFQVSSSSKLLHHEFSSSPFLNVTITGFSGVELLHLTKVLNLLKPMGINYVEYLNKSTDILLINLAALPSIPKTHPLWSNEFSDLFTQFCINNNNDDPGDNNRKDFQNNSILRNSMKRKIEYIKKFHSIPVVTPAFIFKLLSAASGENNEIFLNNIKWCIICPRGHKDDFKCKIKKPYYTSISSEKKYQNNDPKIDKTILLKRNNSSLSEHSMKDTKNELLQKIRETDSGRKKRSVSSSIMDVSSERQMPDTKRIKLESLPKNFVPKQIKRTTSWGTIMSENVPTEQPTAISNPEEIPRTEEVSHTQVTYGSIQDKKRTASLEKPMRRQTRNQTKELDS
The assay can be described thus: pull-down; GST-Dpb11 immobilised on glutathione sepharose 4B, incubated 1 hour at 4 °C with ammonium sulphate-precipitated (57%) yeast cell extracts in 200 mM KOAc, 100 mM Hepes pH 7.6, 10% glycerol, 0.02% NP-40 with phosphatase and protease inhibitors; cells arrested in G1 (α-factor) or M phase (nocodazole), phleomycin- or mock-treated, or MMS-treated (Fig. S1A); only the target purified.

Results are given in words; binding and its absence hold for the method and conditions named. In cells and extracts the contact can be indirect. Some entries that bind do so weakly or less than the wild type. Sequences can lack the tags named with a protein.

B1: Rad9^9myc (protein, UniProt P14737 1-1309)
chain: MSGQLVQWKSSPDRVTQSAIKEALHSPLADGDMNEMNVPVDPLENKVNSTNIIEGSPKANPNPVKFMNTSEIFQKSLGLLDESPRHDDELNIEVGDNDRPNANILHNERTPDLDRIANFFKSNRTPGKENLLTKYQSSDLEDTPLMLRKKMTFQTPTDPLEQKTFKKLKSDTGFCYYGEQNDGEENASLEVTEADATFVQMAERSADNYDCALEGIVTPKRYKDELSKSGGMQDERVQKTQIMISAESPNSISSYDKNKITGNGRTTRNVNKVFNNNEDNIGAIEEKNPVKKKSENYSSDDLRERNNQIIQSNESEEINELEKNLNVSGRENDVNNLDIDINSAVSGTPSRNNAEEEMYSSESVNNREPSKKWIFRYSKDKTENNSNRSTQIVNNPRTQEMPLDSISIDTQPLSKSFNTETNNELETQIIVSSLSQGISAQKGPVFHSTGQTEEIKTQIINSPEQNALNATFETPVTLSRINFEPILEVPETSSPSKNTMSKPSNSSPIPKEKDTFNIHEREVETNNVFSNDIQNSSNAATRDDIIIAGSSDFNEQKEITDRIYLQLSGKQISDSGSDETERMSPNELDTKKESTIMSEVELTQELPEVEEQQDLQTSPKKLVVEEETLMEIKKSKGNSLQLHDDNKECNSDKQDGTESLDVALIEHESKGQSSELQKNLMQLFPSESQEIIQNRRTIKRRQKDTIEIGEEEENRSTKTSPTKHLKRNSDLDAASIKREPSCSITIQTGETGSGKDSKEQSYVFPEGIRTADNSFLSKDDIIFGNAVWCQYTWNYKFYPGILLEVDTNQDGCWIYFETGRSLTKDEDIYYLDIRIGDAVTFDGNEYVVVGLECRSHDLNIIRCIRGYDTVHLKKKNASGLLGKRTLIKALSSISLDLSEWAKRAKIILEDNEKNKGDAYRYLRHPIRGRKSMTNVLSPKKHTDDEKDINTHTEVYNNEIESSSEKKEIVKKDSRDALAEHAGAPSLLFSSGEIRTGNVFDKCIFVLTSLFENREELRQTIESQGGTVIESGFSTLFNFTHPLAKSLVNKGNTDNIRELALKLAWKPHSLFADCRFACLITKRHLRSLKYLETLALGWPTLHWKFISACIEKKRIVPHLIYQYLLPSGESFRLSLDSPSKGGIIKSNNIFSFYTQFLRGSNLRDQICGVKKMLNDYIVIVWGRSELDSFVKFAFACLSAGRMLTIDLPNIDVDDTEPLLNALDSLVPRIGSELSNRKLKFLIYANENNGKSQMKLLERLRSQISLKFKKFNYIFHTESKEWLIQTIINEDTGFHDDITDNDIYNTISEVR
Regarding B1, the binding entry was “binds”.
